Experiment [1] addresses E2F1-VC155 (from pBiFC-E2F1-VC155) (UniProt Q01094). In words: split reporter; BiFC; SH-SY5Y cells co-transfected with pBiFC-PARP1-VN173 and pBiFC-E2F1-VC155; confocal images.
For experiment [2], the target named is E2F transcription factor 1 (E2F1), endogenous (human (endogenous in SH-SY5Y)) (UniProt Q01094). Put plainly: co-IP; endogenous proteins in SH-SY5Y cells; antibodies specific for PARP1 or E2F1, bead-bound proteins analysed by Western blot; IgG-bound protein as negative control; also in cells stably transfected with mock, MZF1-AS1, sh-Scb or sh-MZF1-AS1 #2 and those treated with RNase A (20 µg). Background: In western blotting, separated proteins are transferred to a membrane and probed.

By UniProt entry, the sequences of proteins in these tests, tags left out. Where a name states a change or a piece, a line headed by the entry shows the natural chain unless it says otherwise.
UniProt Q01094: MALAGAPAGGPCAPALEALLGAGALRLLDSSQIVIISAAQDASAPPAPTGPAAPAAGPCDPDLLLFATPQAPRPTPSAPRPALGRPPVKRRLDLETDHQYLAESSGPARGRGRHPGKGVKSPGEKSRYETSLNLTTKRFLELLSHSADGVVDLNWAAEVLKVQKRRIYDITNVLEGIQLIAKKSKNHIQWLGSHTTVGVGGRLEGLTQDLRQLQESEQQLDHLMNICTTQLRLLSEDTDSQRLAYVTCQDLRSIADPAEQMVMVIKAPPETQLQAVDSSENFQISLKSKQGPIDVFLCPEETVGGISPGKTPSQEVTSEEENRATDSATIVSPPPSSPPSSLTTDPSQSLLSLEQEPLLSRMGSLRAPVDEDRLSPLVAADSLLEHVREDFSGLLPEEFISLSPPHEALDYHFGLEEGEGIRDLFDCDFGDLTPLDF
UniProt P09874: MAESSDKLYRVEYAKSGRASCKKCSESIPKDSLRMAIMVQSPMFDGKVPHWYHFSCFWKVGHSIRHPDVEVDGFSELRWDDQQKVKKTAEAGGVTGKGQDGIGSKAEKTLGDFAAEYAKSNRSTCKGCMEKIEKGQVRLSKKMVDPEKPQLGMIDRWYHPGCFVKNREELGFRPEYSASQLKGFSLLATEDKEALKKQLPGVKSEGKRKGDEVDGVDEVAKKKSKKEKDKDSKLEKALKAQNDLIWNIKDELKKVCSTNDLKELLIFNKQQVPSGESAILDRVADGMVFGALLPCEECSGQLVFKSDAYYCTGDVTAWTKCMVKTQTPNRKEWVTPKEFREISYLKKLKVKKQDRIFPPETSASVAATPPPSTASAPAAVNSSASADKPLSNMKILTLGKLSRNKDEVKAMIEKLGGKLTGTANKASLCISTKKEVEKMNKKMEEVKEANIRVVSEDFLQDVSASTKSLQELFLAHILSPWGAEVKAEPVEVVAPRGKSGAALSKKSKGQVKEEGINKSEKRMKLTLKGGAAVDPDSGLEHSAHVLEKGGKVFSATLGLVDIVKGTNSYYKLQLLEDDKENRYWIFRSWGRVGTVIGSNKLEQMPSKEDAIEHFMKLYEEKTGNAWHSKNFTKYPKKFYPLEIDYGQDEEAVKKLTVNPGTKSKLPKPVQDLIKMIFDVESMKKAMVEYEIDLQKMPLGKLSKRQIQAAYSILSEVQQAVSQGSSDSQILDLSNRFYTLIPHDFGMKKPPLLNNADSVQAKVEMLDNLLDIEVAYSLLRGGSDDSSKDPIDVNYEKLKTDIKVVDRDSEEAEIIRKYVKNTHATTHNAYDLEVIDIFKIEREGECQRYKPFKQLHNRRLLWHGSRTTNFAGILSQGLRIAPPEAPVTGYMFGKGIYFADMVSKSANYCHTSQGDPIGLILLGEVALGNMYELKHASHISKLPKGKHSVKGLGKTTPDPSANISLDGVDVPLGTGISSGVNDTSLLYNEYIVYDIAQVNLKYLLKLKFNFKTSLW

No constants are given. Whether binding was seen depends on the method and setting. Binding seen in cells or lysates may run through a third protein. Some binding calls cover weakened binding; strength is not graded here.

Consider “PARP1-VN173 (from pBiFC-PARP1-VN173) (from UniProt P09874 1-1014)”, for which the binding result in experiment [1] is “binds”. As for “poly(ADP-ribose) polymerase 1 (PARP1), endogenous (from UniProt P09874 1-1014)”, the binding entry in experiment [2] is given as “binds”.

These data come from paper PMC6774027.
